# From patent US20080146606A1, “NOVEL COMPOUNDS” (priority 2006, published 2008)
# Some entries share one result that the patent states for a list of compounds.
# Target: T1, Recombinant human IKKβ (residues 5-756) (Homo sapiens, UniProt O14920)
# T1 construct: Recombinant human IKKβ (residues 5-756); GST (C); made in house
# T1 sequence (O14920 5-756): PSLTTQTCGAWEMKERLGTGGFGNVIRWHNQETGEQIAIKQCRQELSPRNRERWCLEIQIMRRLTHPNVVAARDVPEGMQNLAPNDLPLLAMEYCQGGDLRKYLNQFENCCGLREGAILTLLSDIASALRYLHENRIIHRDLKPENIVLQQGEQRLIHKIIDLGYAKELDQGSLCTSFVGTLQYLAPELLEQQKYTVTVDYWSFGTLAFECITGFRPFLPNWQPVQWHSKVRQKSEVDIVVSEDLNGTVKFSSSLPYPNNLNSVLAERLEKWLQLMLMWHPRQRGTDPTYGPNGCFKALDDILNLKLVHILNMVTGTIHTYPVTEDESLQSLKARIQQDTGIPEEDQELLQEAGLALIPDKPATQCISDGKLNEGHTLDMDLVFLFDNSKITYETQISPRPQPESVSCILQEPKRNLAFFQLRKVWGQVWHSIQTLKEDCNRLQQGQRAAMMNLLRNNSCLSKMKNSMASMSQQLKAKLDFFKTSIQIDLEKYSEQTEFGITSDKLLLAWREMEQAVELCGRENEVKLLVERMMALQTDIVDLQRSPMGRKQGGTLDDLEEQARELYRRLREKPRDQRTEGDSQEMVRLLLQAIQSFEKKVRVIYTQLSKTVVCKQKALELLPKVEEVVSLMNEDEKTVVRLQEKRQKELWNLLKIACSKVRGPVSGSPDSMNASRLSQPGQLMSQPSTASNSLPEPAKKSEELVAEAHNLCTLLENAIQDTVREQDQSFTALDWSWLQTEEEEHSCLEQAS
# Assay: IKK2 assay (TR-FRET)
# Type: biochemical
row,SMILES,pIC50 potency against IKK2
1,"CC1(c2cc3c(-c4ccc(S(=O)(=O)NCCO)cc4)ccnc3[nH]2)CC1 [Example 187, N-(2-Hydroxyethyl)-4-[2-(1-methylcyclopropyl)-1H-pyrrolo[2,3-b]pyridin-4-yl]benzenesulfonamide]",≥ 5.0
2,"CC[C@@H](CO)NS(=O)(=O)c1ccc(-c2ccnc3[nH]c(C4CC4)cc23)cc1 [Example 210, 4-(2-cyclopropyl-1H-pyrrolo[2,3-b]pyridin-4-yl)-N-[(1S)-1-(hydroxymethyl)propyl]benzenesulfonamide]",≥ 5.0
3,"O=C(O)C(F)(F)F.O=C(O)Cc1cccc(OCc2cc3c(-c4ccc(S(=O)(=O)N5CCCC5)cc4)ccnc3[nH]2)c1 [Example 38, {3-[({4-[4-(1-Pyrrolidinylsulfonyl)phenyl]-1H-pyrrolo[2,3-b]pyridin-2-yl}methyl)oxy]phenyl}acetic acid trifluoroacetate]",≥ 5.0
4,"Cc1cc(C)n(Cc2cc3c(-c4ccc(S(=O)(=O)N5CCCC5)cc4)ccnc3[nH]2)n1.O=C(O)C(F)(F)F [Example 55, 2-[(3,5-dimethyl-1H-pyrazol-1-yl)methyl]-4-[4-(1-pyrrolidinylsulfonyl)phenyl]-1H-pyrrolo[2,3-b]pyridine trifluoroacetate]",≥ 5.0
5,"O=C(O)C(F)(F)F.O=S(=O)(c1ccc(-c2ccnc3[nH]c(CNCC4CC4)cc23)cc1)N1CCCC1 [Example 35, (cyclopropylmethyl)({4-[4-(1-pyrrolidinylsulfonyl)phenyl]-1H-pyrrolo[2,3-b]pyridin-2-yl}methyl)amine trifluoroacetate]",≥ 5.0
6,"O=S(=O)(NC1CCC(O)C1)c1ccc(-c2ccnc3[nH]c(C(F)(F)F)cc23)cc1 (stereo not shown) [Example 231, N-(3-hydroxycyclopentyl)-4-[2-(trifluoromethyl)-1H-pyrrolo[2,3-b]pyridin-4-yl]benzenesulfonamide]",≥ 5.0
7,"O=S1(=O)CCC(NS(=O)(=O)c2ccc(-c3ccnc4[nH]c(C(F)(F)F)cc34)cc2)CC1 [Example 69, N-(1,1-Dioxidotetrahydro-2H-thiopyran-4-yl)-4-[2-(trifluoromethyl)-1H-pyrrolo[2,3-b]pyridin-4-yl]benzenesulfonamide]",≥ 5.0
8,"CN(C)CCNCc1cc2c(-c3ccc(S(=O)(=O)N4CCCC4)cc3)ccnc2[nH]1.O=C(O)C(F)(F)F [Example 28, N,N-Dimethyl-N′-({4-[4-(1-pyrrolidinylsulfonyl)phenyl]-1H-pyrrolo[2,3-b]pyridin-2-yl}methyl)-1,2-ethanediamine trifluoroacetate]",≥ 5.0
9,"CC(NS(=O)(=O)c1ccc(-c2ccnc3[nH]c(C4CC4)cc23)cc1)C(C)(C)O (stereo not shown) [Example 189, 4-(2-Cyclopropyl-1H-pyrrolo[2,3-b]pyridin-4-yl)-N-(2-hydroxy-1,2-dimethylpropyl)benzenesulfonamide]",≥ 5.0
10,"CN(C1CCCCC1)S(=O)(=O)c1ccc(-c2ccnc3[nH]c(Cn4ccnn4)cc23)cc1 [Example 125, N-cyclohexyl-N-methyl-4-[2-(1H-1,2,3-triazol-1-ylmethyl)-1H-pyrrolo[2,3-b]pyridin-4-yl]benzenesulfonamide]",≥ 5.0
11,"CC(C)(C)OC(=O)Cc1cc2c(-c3ccc(S(=O)(=O)N4CCCC4)cc3)ccnc2[nH]1.O=C(O)C(F)(F)F [Example 14, 1,1-dimethylethyl {4-[4-(1-pyrrolidinylsulfonyl)phenyl]-1H-pyrrolo[2,3-b]pyridin-2-yl}acetate trifluoroacetate]",≥ 5.0
12,"O=S1(=O)CCC(NS(=O)(=O)c2ccc(-c3ccnc4[nH]c(C(F)F)cc34)cc2)C1 (stereo not shown) [Example 64, 4-[2-(Difluoromethyl)-1H-pyrrolo[2,3-b]pyridin-4-yl]-N-(1,1-dioxidotetrahydro-3-thienyl)benzenesulfonamide]",≥ 5.0
13,"CN(CCCN)S(=O)(=O)c1ccc(-c2ccnc3[nH]c(Cn4ccnn4)cc23)cc1 [Example 153, N-(3-aminopropyl)-N-methyl-4-[2-(1H-1,2,3-triazol-1-ylmethyl)-1H-pyrrolo[2,3-b]pyridin-4-yl]benzenesulfonamide]",≥ 5.0
14,"CCN(CC)Cc1cc2c(-c3ccc(S(=O)(=O)NCCN)cc3)ccnc2[nH]1 [Example 194, N-(2-Aminoethyl)-4-{2-[(diethylamino)methyl]-1H-pyrrolo[2,3-b]pyridin-4-yl}benzenesulfonamide]",≥ 5.0
15,"O=C(O)C(F)(F)F.O=S1(=O)CCC(NS(=O)(=O)c2ccc(-c3ccnc4[nH]c(Cn5ccnn5)cc34)cc2)CC1 [Example 93, N-(1,1-dioxidotetrahydro-2H-thiopyran-4-yl)-4-[2-(1H-1,2,3-triazol-1-ylmethyl)-1H-pyrrolo[2,3-b]pyridin-4-yl]benzenesulfonamide trifluoroacetate]",≥ 5.0
16,"CCc1cc2c(-c3ccc(S(=O)(=O)N4CCCC4)cc3)ccnc2[nH]1 [Example 68, 2-Ethyl-4-[4-(1-pyrrolidinylsulfonyl)phenyl]-1H-pyrrolo[2,3-b]pyridine]",≥ 5.0
17,"CC(C)c1cc2c(-c3ccc(S(=O)(=O)N4CCCC4)cc3)ccnc2[nH]1 [Example 66, 2-(1-Methylethyl)-4-[4-(1-pyrrolidinylsulfonyl)phenyl]-1H-pyrrolo[2,3-b]pyridine]",≥ 5.0
18,"CC(C)(O)CNS(=O)(=O)c1ccc(-c2ccnc3[nH]c(C4CC4)cc23)cc1 [Example 195, 4-(2-Cyclopropyl-1H-pyrrolo[2,3-b]pyridin-4-yl)-N-(2-hydroxy-2-methylpropyl)benzenesulfonamide]",≥ 5.0
19,"CC(C)(C)OC(=O)Cc1cc2c(-c3ccc(S(=O)(=O)NC4CCS(=O)(=O)CC4)cc3)ccnc2[nH]1 [Example 8, 1,1-Dimethylethyl[4-(4-{[(1,1-dioxidotetrahydro-2H-thiopyran-4-yl)amino]sulfonyl}phenyl)-1H-pyrrolo[2,3-b]pyridin-2-yl]acetate]",≥ 5.0
20,"Cc1cc2c(-c3ccc(S(=O)(=O)NC4CCC(O)CC4)cc3)ccnc2[nH]1.O=C(O)C(F)(F)F (stereo not shown) [Example 169, N-(4-hydroxycyclohexyl)-4-(2-methyl-1H-pyrrolo[2,3-b]pyridin-4-yl)benzenesulfonamidetrifluoroacetate]",≥ 5.0
21,"O=C(O)C(F)(F)F.O=S(=O)(NC1CCCCC1)c1ccc(-c2ccnc3[nH]c(C(F)F)cc23)cc1 [Example 173, N-cyclohexyl-4-[2-(difluoromethyl)-1H-pyrrolo[2,3-b]pyridin-4-yl]benzenesulfonamidetrifluoroacetate]",≥ 5.0
22,"Cc1cc2c(-c3ccc(S(=O)(=O)NC4CCN(C)CC4)cc3)ccnc2[nH]1.O=C(O)C(F)(F)F [Example 158, N-(1-methyl-4-piperidinyl)-4-(2-methyl-1H-pyrrolo[2,3-b]pyridin-4-yl)benzenesulfonamidetrifluoroacetate]",≥ 5.0
23,"CS(=O)(=O)Nc1ccc(-c2ccnc3[nH]c(CC(=O)NCCCS(N)(=O)=O)cc23)cc1.O=C(O)C(F)(F)F [Example 24, N-[3-(aminosulfonyl)propyl]-2-(4-{4-[(methylsulfonyl)amino]phenyl}-1H-pyrrolo[2,3-b]pyridin-2-yl)acetamide trifluoroacetate]",≥ 5.0
24,"CC(C)(C)c1cc2c(-c3ccc(S(=O)(=O)NC4CCS(=O)(=O)CC4)cc3)ccnc2[nH]1.O=C(O)C(F)(F)F [Example 108, 4-[2-(1,1-dimethylethyl)-1H-pyrrolo[2,3-b]pyridin-4-yl]-N-(1,1-dioxidotetrahydro-2H-thiopyran-4-yl)benzenesulfonamide trifluoroacetate]",≥ 5.0
25,"CN(C)Cc1cc2c(-c3ccc(S(=O)(=O)N[C@@H]4CCS(=O)(=O)C4)cc3)ccnc2[nH]1 [Example 253, 4-{2-[(Dimethylamino)methyl]-1H-pyrrolo[2,3-b]pyridin-4-yl}-N-[(3R)-1,1-dioxidotetrahydro-3-thienyl]benzenesulfonamide]",≥ 5.0
26,"NCCNS(=O)(=O)c1ccc(-c2ccnc3[nH]c(C4CCC4)cc23)cc1.O=C(O)C(F)(F)F [Example 148, N-(2-aminoethyl)-4-(2-cyclobutyl-1H-pyrrolo[2,3-b]pyridin-4-yl)benzenesulfonamidetrifluoroacetate]",≥ 5.0
27,"NCCCNS(=O)(=O)c1ccc(-c2ccnc3[nH]c(Cn4ccnn4)cc23)cc1 [Example 151, N-(3-aminopropyl)-4-[2-(1H-1,2,3-triazol-1-ylmethyl)-1H-pyrrolo[2,3-b]pyridin-4-yl]benzenesulfonamide]",≥ 5.0
28,"CN(C)S(=O)(=O)c1ccc(-c2ccnc3[nH]c(C(F)F)cc23)cc1.O=C(O)C(F)(F)F [Example 168, 4-[2-(difluoromethyl)-1H-pyrrolo[2,3-b]pyridin-4-yl]-N,N-dimethylbenzenesulfonamidetrifluoroacetate]",≥ 5.0
